Measured values as given in doi:10.1101/2024.11.15.623754.
Results are given in words; binding and its absence hold for the method and conditions named. In cells and extracts the contact can be indirect. Some results given as binding are weak or reduced against the parent protein; the word gives no strength. Tags and fused reporters may be left off the sequences shown.

The chains behind the UniProt entries cited, without tags or fusion partners.
UniProt Q61990: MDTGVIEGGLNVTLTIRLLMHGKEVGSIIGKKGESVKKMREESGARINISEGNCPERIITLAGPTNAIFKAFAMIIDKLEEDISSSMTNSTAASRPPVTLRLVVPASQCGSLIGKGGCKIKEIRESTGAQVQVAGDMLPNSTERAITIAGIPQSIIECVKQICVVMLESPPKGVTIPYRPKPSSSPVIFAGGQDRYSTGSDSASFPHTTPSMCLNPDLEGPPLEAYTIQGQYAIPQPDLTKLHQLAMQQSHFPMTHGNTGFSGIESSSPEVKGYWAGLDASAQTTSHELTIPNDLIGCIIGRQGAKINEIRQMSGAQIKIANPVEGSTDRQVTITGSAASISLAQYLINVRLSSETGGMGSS

Biological target: Poly-C Binding Protein 2 (PCBP2) (mouse (endogenous in murine hepatocyte 3A cells)) (UniProt Q61990)
Assay: co-IP

binding: binds
B1: Synaptotagmin-binding Cytoplasmic RNA-Interacting Protein (SYNCRIP) (protein, UniProt Q7TMK9 1-623)
chain: MATEHVNGNGTEEPMDTTSAVIHSENFQTLLDAGLPQKVAEKLDEIYVAGLVAHSDLDERAIEALKEFNEDGALAVLQQFKDSDLSHVQNKSAFLCGVMKTYRQREKQGTKVADSSKGPDEAKIKALLERTGYTLDVTTGQRKYGGPPPDSVYSGQQPSVGTEIFVGKIPRDLFEDELVPLFEKAGPIWDLRLMMDPLTGLNRGYAFVTFCTKEAAQEAVKLYNNHEIRSGKHIGVCISVANNRLFVGSIPKSKTKEQILEEFSKVTEGLTDVILYHQPDDKKKNRGFCFLEYEDHKTAAQARRRLMSGKVKVWGNVGTVEWADPIEDPDPEVMAKVKVLFVRNLANTVTEEILEKSFSQFGKLERVKKLKDYAFIHFDERDGAVKAMEEMNGKDLEGENIEIVFAKPPDQKRKERKAQRQAAKNQMYDDYYYYGPPHMPPPTRGRGRGGRGGYGYPPDYYGYEDYYDYYGYDYHNYRGGYEDPYYGYEDFQVGARGRGGRGARGAAPSRGRGAAPPRGRAGYSQRGGPGSARGVRGARGGAQQQRGRGVRGARGGRGGNVGGKRKADGYNQPDTKRRQTNNQNWGSQPIAQQPLQGGDHSGNYGYKSENQEFYQDTFGQQWK
